No constants are given. Whether binding was seen depends on the method and setting. For some of these results: Binding seen in cells or lysates may run through a third protein. Some entries that bind do so weakly or less than the wild type. Where a sequence is shown, tags or fusion partners need not be part of it.

Protein sequences, listed by entry. Tags and fused reporters are not part of them. Residues count along the entry.
UniProt Q63604, residues 454-821: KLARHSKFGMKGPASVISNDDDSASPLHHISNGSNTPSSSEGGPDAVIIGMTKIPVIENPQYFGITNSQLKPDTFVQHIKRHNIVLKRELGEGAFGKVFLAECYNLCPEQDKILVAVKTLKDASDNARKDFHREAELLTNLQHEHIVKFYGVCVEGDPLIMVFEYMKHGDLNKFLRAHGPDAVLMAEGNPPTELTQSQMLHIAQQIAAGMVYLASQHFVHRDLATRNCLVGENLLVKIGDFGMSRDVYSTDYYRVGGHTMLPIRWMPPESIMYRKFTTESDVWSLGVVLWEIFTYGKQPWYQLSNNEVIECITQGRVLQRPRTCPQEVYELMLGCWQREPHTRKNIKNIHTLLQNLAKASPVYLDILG

One test addresses MBP-TrkB-454-821 (rat) (UniProt Q63604). The experiment in a line: pull-down.
The next test addresses T1, GFP-Snapin (UniProt O95295).
T1 sequence: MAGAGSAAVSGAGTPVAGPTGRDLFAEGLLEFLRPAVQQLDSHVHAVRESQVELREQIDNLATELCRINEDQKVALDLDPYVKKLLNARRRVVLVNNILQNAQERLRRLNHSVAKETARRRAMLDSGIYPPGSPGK
The test can be described thus: co-IP.

B1: GST-ActII-SIPA1L2-1026-1650 (domain or fragment, UniProt Q5JCS6 1026-1650)
chain: HEDGSPRRGCSELCRIPMVEYKLDSEGTPCEYKTPFRRNTTWHRVPTPALQPVSRASPVPGTPDRLQCQPLLQQAQAAIPRSTSFDRKLPDGTRSSPSNQSSSSDPGPGGSGPWRPQVGYDGCPSPLLLEPQGPGSVECDGSGDHEDLMEVGRLPETKWHGPPSKVLSSYKERALQKDGSCKDSPNKLSHIGDKSCSSHSSSNTLSSNTSSNSDDKHFGSGDLMDPELLGLTYIKGASTDSGIDTTPCMPATILGPMHLTGSRSLIHSRAEQWADAADVSGADEDPAKMYTLHGYASAISSSAADGSMGDLSEVSSHSSGSHRSGSPSTHCSKSTGSLDSSKVYIVTHSGGQQVPGAVAKPYHRQGAANKYVIGWKKSEGSPPPEEPEVTECPRIYGEMDIMSTASQHPAVVGDSVPEAQHVLSKDDFLKLMLPDSPLVEEGRRKFSFYGNLSPRRSLYRTLSDESVCSNRRGSSFASSRSSILDQALPNDILFSTTPPYHSTLPPRTHPAPSMGSLRNEFWFSDGSLSDKSKCADPGLMPLPDTAAGLDWSHLVDAARAFEGLDSDEELGLLCHHASYLDQRVASFCTLTDLQHGQELEGAPELSLCVDPTSGKEFMDTPGERS
For B1, in the test with MBP-TrkB-454-821 (rat), the binding entry was “no binding (tested: 2 µg)”.

B2: PDZ-SIPA1L2-tRFP (domain or fragment, UniProt Q5JCS6 948-1025)
chain: ETVEMTLRRNGLGQLGFHVNFEGIVADVEPFGFAWKAGLRQGSRLVEICKVAVATLTHEQMIDLLRTSVTVKVVIIQP
Take B2: in the test with GFP-Snapin, the binding entry is “binds”.

B3: RapGAP domain of SIPA1L2 (aa 624-813), expressed in HEK293T (domain or fragment, UniProt Q5JCS6 624-813)
chain: EMYNNETAGPAFEEFLDLLGQRVRLKGFSKYRAQLDNKTDSTGTHSLYTTYKDFELMFHVSTLLPYMPNNRQQLLRKRHIGNDIVTIVFQEPGALPFTPKNIRSHFQHVFVIVKVHNPCTENVCYSVGVFRSKDVPPFVPPIPKGVTFPRTGVFRDFLLAKGINAENAAHKSEKFRAMATRTRHEYLKDL
Take B3: in the test with GFP-Snapin, the binding entry was “binds”.

B4: SIPA1L2-470-838-tRFP (domain or fragment, UniProt Q5JCS6 470-838)
chain: REKVKRYIIEHVDLGAYYYRKFFYGKEHQNYFGIDENLGPVAVSIRREKVEDPREKEGSQFNYRVAFRTSELTTLRGAILEDAVPSTARHGTARGLPLKEVLEYVIPELSIPCLRQAANSPKVPEQLLKLDEQGLSFQHKIGILYCKAGQSTEEEMYNNETAGPAFEEFLDLLGQRVRLKGFSKYRAQLDNKTDSTGTHSLYTTYKDFELMFHVSTLLPYMPNNRQQLLRKRHIGNDIVTIVFQEPGALPFTPKNIRSHFQHVFVIVKVHNPCTENVCYSVGVFRSKDVPPFVPPIPKGVTFPRTGVFRDFLLAKGINAENAAHKSEKFRAMATRTRHEYLKDLAENFVTTTTVDTSAKFSFITLGAKK
Consider B4, for which, in the test with GFP-Snapin, the binding result was “binds”.
